Experimental data as given in PMC10204415 (2023).
No constants are given. Whether binding was seen depends on the method and setting. For some assays here: In cells and extracts the contact can be indirect. Some entries that bind do so weakly or less than the wild type. Where a sequence is shown, tags or fusion partners need not be part of it.

Assays:
[1] = molecular target: T1, MBP-ARHGEF11 (mouse ARHGEF11 residues 1334–1406, except for deleted residues 1352–1394 by alternative splicing) (mouse) (UniProt Q68FM7); assay: NMR titration; named only in one sentence; no data, constructs or conditions given
T1 sequence: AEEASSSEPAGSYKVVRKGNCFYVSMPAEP

[2] = molecular target: T1, MBP-ARHGEF11 (mouse ARHGEF11 residues 1334–1406, except for deleted residues 1352–1394 by alternative splicing) (mouse); assay: pull-down; MBP-ARHGEF11 captured from crude E. coli extract on a GSA (gelatinized starch–agarose)-coated 96-well plate and washed; 3% BSA blocking at 4 °C for 1 h; GST-ZO1-ZU5 overlaid at 4 °C for 30 min; GSA buffer (150 mM NaCl, 50 mM Tris-HCl pH 7.4); co-eluted with 10 mM maltose; SDS-PAGE with Coomassie staining; only the target purified

B1: GST-ZO1-ZU5 (mouse ZO-1 ZU5 domain, residues 1624–1745) (domain or fragment)
chain: EDGHTVVATARGIFNSNGGVLSSIETGVSIIIPQGAIPEGIEQEIYFKVCRDNSILPPLDKEKGETLLSPLVMCGPHGLKFLKPVELRLPHCDPKTWQNKCLPGDPNYLVGANCVSVLIDHF
binding [1]: binds | binding [2]: binds
